Some results were stated once for a whole list of compounds, not compound by compound. For at least one compound, name, drawing or mass did not settle the structure.
Tested on: Prostaglandin E2 (prostanoid formation in liver homogenates)
Experiment: Prostaglandin E2 in the liver homogenate by enzyme immunoassay after five-day treatment
Type: in vivo
Conditions: male rats, once daily by gavage for five days, sacrificed 6 hr after treatment; diclofenac 20 mg/kg, compound of example 1 36 mg/kg

**Q.** How did the “Reduction of prostanoid formation in liver homogenates as compared to vehicle-treated animals” value turn out when `O=C(Cc1ccccc1Nc1c(Cl)cccc1Cl)Oc1ccc(-c2cc(=S)ss2)cc1` [Compound example 1, 2-[(2,6-dichlorophenyl)amino]benzeneacetic acid 4-(3H-1,2,dithiole-3-thione-5-yl)-phenyl ester] was run?
**A.** ≥ 90%

Reference: patent US20090281093A1, “ANTI-INFLAMMATORY COMPOUNDS” (C.T.G. PHARMA S.R.L., priority 2005, published 2009)
